# Test results: PMC5238962
# By UniProt entry, the sequences of proteins in these tests, tags left out.
# UniProt P47813: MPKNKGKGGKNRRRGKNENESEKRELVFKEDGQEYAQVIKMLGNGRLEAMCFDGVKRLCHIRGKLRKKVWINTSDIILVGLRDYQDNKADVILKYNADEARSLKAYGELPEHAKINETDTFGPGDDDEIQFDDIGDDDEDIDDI
# UniProt P05198: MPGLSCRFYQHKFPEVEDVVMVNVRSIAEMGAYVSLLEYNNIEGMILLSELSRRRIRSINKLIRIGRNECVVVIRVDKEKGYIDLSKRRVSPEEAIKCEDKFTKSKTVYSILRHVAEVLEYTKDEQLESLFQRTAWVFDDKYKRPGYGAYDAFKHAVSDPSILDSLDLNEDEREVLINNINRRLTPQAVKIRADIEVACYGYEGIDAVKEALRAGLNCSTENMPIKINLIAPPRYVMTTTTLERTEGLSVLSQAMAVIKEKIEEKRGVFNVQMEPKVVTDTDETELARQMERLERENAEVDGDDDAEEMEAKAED
# UniProt P20042: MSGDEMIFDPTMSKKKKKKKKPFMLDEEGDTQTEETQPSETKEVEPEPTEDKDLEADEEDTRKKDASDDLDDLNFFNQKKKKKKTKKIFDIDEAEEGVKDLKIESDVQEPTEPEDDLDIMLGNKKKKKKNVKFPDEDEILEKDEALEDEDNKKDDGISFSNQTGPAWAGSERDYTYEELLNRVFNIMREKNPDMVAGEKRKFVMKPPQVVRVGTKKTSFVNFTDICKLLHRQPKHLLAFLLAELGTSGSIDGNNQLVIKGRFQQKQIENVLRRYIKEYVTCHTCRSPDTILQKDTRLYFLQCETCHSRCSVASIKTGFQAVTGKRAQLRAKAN
# UniProt O15371: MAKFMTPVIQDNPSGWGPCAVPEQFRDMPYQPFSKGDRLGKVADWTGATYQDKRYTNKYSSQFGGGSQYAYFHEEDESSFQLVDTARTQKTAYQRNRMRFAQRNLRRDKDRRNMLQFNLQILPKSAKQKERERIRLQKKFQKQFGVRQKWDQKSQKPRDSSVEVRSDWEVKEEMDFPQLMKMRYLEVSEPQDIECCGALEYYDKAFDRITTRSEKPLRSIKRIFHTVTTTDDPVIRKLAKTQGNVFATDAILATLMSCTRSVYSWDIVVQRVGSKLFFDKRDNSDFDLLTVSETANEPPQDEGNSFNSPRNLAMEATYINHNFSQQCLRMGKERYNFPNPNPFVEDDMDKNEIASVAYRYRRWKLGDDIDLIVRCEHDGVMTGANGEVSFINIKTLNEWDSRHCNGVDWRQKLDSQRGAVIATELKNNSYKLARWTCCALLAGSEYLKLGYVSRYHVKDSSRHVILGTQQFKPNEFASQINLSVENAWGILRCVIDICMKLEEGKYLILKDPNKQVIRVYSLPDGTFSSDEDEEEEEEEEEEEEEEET
# UniProt Q99613: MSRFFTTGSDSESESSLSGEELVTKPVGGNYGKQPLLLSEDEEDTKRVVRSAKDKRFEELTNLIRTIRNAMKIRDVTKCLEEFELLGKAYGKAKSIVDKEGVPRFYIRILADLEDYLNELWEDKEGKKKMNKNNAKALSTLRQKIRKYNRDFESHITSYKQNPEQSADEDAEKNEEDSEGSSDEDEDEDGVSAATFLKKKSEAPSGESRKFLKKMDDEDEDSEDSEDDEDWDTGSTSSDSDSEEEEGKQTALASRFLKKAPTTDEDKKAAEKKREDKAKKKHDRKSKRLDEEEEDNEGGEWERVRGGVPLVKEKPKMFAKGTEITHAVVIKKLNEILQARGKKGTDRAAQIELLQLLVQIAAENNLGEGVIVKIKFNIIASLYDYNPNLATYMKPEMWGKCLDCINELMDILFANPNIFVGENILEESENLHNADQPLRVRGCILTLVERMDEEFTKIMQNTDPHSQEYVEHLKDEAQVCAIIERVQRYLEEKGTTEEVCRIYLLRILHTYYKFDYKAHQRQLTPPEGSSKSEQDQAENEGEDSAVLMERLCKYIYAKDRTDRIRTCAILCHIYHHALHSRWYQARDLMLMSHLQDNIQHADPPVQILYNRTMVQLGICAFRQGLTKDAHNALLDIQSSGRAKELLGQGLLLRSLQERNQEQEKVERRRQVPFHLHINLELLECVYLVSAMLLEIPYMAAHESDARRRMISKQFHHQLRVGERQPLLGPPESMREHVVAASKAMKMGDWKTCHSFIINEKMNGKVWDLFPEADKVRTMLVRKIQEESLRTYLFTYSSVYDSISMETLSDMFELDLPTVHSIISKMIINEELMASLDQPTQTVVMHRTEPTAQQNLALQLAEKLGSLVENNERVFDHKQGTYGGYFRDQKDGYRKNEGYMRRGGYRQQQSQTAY
# Results are given in words; binding and its absence hold for the method and conditions named. In cells and extracts the contact can be indirect. Some results given as binding are weak or reduced against the parent protein; the word gives no strength.
# What was measured:
# [1] = target: 6XHis-eIF1A (Homo sapiens translation initiation factor 1A X-linked) (human) (UniProt P47813); assay: pull-down; 6XHis-eIF1A on Ni-NTA agarose, HeLa cell extract; coprecipitated proteins detected by Western blot; also with 0.3, 1, 3 or 10 μM N40 random RNA or α-eIF1A aptamer RNA added; only the target purified
# [2] = target: 6XHis-eIF1A (Homo sapiens translation initiation factor 1A X-linked) (human) (UniProt P47813); assay: pull-down; only the target purified
binding [1],binding [2],Substance
binds,–,eIF2α (from UniProt P05198 1-315)
–,binds,eIF2β (from UniProt P20042 1-333)
–,binds,eIF3 p66 (from UniProt O15371 1-548)
binds,–,eIF3 p110 (from UniProt Q99613 1-913)
